Laboratory results: publication PMC12382147
Results are given in words; binding and its absence hold for the method and conditions named. For some assays here: Binding seen in cells or lysates may run through a third protein. Some results given as binding are weak or reduced against the parent protein; the word gives no strength. For some assays here: Where a sequence is shown, tags or fusion partners need not be part of it. Blank lines part the entries; values can stand above or below the molecule they belong to.

The chains behind the UniProt entries cited, without tags or fusion partners.
UniProt Q9WUD1: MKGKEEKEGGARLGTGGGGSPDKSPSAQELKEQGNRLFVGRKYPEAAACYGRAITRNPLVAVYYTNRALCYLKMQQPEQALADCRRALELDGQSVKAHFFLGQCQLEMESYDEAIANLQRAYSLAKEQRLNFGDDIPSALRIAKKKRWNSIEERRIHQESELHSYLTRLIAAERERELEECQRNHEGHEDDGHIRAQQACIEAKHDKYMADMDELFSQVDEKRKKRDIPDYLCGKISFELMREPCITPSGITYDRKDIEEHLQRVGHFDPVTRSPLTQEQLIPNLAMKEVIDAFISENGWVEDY
UniProt Q13263: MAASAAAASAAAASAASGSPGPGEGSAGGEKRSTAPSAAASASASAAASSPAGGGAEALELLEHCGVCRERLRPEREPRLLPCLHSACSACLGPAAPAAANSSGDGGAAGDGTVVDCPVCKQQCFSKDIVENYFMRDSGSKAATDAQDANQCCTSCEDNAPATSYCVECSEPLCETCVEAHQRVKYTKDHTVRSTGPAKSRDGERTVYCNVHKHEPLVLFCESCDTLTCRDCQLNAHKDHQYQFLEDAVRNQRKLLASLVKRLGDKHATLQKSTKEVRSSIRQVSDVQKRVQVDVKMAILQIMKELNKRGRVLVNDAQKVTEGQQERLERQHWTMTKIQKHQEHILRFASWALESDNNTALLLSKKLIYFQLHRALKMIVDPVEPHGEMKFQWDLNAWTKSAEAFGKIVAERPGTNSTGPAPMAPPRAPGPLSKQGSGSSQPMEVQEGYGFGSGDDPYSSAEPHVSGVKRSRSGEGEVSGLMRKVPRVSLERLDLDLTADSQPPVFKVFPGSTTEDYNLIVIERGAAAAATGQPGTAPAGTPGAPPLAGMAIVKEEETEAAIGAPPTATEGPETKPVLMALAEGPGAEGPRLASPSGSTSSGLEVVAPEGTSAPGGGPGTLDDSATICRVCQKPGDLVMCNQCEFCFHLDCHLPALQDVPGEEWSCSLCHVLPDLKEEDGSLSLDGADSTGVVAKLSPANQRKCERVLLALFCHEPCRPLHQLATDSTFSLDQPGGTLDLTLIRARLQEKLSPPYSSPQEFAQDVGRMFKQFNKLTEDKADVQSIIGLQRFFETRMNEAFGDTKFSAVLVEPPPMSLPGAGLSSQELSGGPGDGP
UniProt Q9UNE7: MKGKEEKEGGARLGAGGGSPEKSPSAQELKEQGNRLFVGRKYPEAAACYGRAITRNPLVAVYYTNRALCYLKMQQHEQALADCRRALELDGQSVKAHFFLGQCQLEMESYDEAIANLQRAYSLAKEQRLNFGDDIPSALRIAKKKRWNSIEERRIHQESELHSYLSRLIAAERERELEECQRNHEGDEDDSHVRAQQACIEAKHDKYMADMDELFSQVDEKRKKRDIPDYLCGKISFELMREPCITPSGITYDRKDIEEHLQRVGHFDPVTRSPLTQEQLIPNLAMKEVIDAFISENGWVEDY

Key:
[1] = target: T1, TPIT, endogenous in AtT-20 cells (mouse (endogenous in AtT-20)) (UniProt Q99ME7); test: co-IP; endogenous Co-IP in AtT-20 and corticotropin cells; Triton X-100 lysis buffer, rProtein A/G beads, immunoblot
T1 sequence: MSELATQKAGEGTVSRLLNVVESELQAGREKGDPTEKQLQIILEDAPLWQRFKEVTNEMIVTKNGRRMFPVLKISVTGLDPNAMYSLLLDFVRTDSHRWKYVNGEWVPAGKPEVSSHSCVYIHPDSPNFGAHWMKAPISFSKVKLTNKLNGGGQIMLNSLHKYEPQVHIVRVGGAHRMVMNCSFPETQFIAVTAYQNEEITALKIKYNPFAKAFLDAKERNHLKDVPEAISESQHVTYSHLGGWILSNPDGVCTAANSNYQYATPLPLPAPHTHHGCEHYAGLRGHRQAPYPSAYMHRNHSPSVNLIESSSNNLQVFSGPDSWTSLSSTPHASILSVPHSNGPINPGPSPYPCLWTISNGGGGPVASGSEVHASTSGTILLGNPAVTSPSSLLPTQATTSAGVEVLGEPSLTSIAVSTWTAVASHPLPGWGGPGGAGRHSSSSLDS

[2] = target: T2, glutathione S-transferase (GST)-TPIT fusion protein (UniProt O60806); test: pull-down; GST pulldown with purified GST-TPIT or GST and purified His-STUB1; as previously described (ref. 21); both purified
T2 sequence: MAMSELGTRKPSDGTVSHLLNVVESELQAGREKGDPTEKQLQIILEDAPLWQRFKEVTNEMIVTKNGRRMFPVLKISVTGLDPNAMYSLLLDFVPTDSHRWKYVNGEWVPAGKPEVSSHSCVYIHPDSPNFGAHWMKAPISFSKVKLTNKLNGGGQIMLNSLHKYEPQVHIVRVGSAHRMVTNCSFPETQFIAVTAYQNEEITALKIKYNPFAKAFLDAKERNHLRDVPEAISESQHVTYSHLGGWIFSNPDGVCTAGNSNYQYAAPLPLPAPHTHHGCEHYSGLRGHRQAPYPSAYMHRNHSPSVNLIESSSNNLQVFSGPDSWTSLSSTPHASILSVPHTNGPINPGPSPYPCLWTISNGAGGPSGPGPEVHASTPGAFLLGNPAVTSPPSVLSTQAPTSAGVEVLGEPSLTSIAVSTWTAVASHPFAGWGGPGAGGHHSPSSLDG

Smbit-TPIT [3] = target: T3, Smbit-TPIT (UniProt O60806); test: split reporter; NanoBiT; HEK-293T transfected with LgBiT and SmBiT plasmids, lysed, luminescence of the supernatant with furimazine in 96-well plates
T3 sequence: T2 sequence

Smbit-TPIT [4] = target: T3, Smbit-TPIT; test: split reporter; NanoBiT for drug screening; HEK-293T transfected with Smbit-TPIT and Lgbit-STUB1, 5000 cells per well in 384-well plates with furimazine; 1913 compounds at 1 uM, read at 15, 30, 60 and 120 min
Flag-TPIT = target: T4, Flag-TPIT (UniProt O60806); test: co-IP; exogenous ('external') Co-IP of Flag-TPIT with candidate ubiquitin ligases, Myc-tagged STUB1 or its truncated mutants; Triton X-100 lysis buffer, rProtein A/G beads, immunoblot; also with Irbesartan, Bosentan or Lumiracoxib (interaction enhanced)
T4 sequence: T2 sequence

[5] = target: T5, TPIT, endogenous in corticotropin cells (human (endogenous in primary corticotroph tumor cells)) (UniProt O60806); test: co-IP; endogenous Co-IP in AtT-20 and corticotropin cells; Triton X-100 lysis buffer, rProtein A/G beads, immunoblot
T5 sequence: T2 sequence

Molecule: STUB1, endogenous in AtT-20 cells (from UniProt Q9WUD1 1-304) (enzyme)
binding [1]: binds

Molecule: Tripartite motif-containing protein 28 (TRIM28), Co-IP verification (from UniProt Q13263 1-835) (enzyme)
binding (Flag-TPIT): binds

Molecule: STIP1 Homology and U-Box Containing Protein 1 (STUB1), endogenous, human cells (from UniProt Q9UNE7 1-303) (enzyme)
binding [5]: binds

Next, values leading:

binding [2]: binds
Molecule: His-STUB1 (from UniProt Q9UNE7 1-303) (enzyme)

binding (Smbit-TPIT [3]): binds
binding (Smbit-TPIT [4]): binds
Molecule: Lgbit-STUB1 (from UniProt Q9UNE7 1-303) (enzyme)

binding (Flag-TPIT): binds
Molecule: Myc-STUB1 (wild-type) (from UniProt Q9UNE7 1-303) (enzyme)

binding (Flag-TPIT): binds
B1: PLRG1, Co-IP verification (protein, UniProt O43660 1-514)
chain: MVEEVQKHSVHTLVFRSLKRTHDMFVADNGKPVPLDEESHKRKMAIKLRNEYGPVLHMPTSKENLKEKGPQNATDSYVHKQYPANQGQEVEYFVAGTHPYPPGPGVALTADTKIQRMPSESAAQSLAVALPLQTKADANRTAPSGSEYRHPGASDRPQPTAMNSIVMETGNTKNSALMAKKAPTMPKPQWHPPWKLYRVISGHLGWVRCIAVEPGNQWFVTGSADRTIKIWDLASGKLKLSLTGHISTVRGVIVSTRSPYLFSCGEDKQVKCWDLEYNKVIRHYHGHLSAVYGLDLHPTIDVLVTCSRDSTARIWDVRTKASVHTLSGHTNAVATVRCQAAEPQIITGSHDTTIRLWDLVAGKTRVTLTNHKKSVRAVVLHPRHYTFASGSPDNIKQWKFPDGSFIQNLSGHNAIINTLTVNSDGVLVSGADNGTMHLWDWRTGYNFQRVHAAVQPGSLDSESGIFACAFDQSESRLLTAEADKTIKVYREDDTATEETHPVSWKPEIIKRKRF
